# Results are given in words; binding and its absence hold for the method and conditions named. For some assays here: In cells and extracts the contact can be indirect. Some binding calls cover weakened binding; strength is not graded here. Sequences can lack the tags named with a protein.
# T1: Nuclear transcription factor erythroid 2p45 (NF-E2)-related factor 2 (NRF2), endogenous (human (endogenous in NCI-H1299)) (UniProt Q16236)
# T1 sequence: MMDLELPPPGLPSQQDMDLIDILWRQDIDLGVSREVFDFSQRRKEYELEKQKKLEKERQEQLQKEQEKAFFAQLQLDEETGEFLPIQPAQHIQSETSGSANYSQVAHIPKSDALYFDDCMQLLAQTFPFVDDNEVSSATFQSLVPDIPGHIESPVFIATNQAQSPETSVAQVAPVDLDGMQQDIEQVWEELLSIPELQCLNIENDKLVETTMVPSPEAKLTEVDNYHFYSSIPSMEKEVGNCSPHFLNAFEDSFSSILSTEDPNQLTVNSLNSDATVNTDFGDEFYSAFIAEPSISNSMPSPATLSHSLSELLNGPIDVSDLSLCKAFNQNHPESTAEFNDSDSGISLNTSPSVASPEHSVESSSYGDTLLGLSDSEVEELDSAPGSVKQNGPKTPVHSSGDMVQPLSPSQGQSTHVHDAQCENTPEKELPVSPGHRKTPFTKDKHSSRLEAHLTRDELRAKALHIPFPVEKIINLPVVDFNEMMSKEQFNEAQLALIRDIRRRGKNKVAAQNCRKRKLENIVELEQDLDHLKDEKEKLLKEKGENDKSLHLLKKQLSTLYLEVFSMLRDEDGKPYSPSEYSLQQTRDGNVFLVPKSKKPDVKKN
# T2: GST-NRF2 (GST-tagged NRF2^WT, expressed without OGT; naked recombinant NRF2) (UniProt Q16236)
# T2 sequence: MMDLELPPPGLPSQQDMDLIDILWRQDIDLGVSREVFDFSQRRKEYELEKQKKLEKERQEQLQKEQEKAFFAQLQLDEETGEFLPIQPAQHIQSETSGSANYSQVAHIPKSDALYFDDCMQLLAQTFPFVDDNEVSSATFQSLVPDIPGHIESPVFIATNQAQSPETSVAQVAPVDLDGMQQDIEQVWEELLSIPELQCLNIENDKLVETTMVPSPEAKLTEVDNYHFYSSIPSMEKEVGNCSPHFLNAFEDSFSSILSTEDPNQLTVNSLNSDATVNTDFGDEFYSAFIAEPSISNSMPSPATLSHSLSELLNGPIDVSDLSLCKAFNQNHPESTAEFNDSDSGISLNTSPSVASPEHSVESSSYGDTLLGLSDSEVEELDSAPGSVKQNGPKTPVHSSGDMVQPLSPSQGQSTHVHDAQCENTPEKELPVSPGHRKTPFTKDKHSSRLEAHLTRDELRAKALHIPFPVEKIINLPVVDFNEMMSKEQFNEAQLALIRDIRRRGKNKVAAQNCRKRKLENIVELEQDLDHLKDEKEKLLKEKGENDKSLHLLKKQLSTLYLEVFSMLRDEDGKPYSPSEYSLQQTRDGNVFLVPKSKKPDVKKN
# Key:
# [1] = target: T1, Nuclear transcription factor erythroid 2p45 (NF-E2)-related factor 2 (NRF2), endogenous (human (endogenous in NCI-H1299)); test: co-IP; endogenous proteins of NCI-H1299 (or NCI-H1299^NRF2-WT / NCI-H1299^NRF2-S103A) cells; NP40 lysis solution with 40 mM GlcNAc, 10 µM PUGNAc, 2 mM STZ, 10 µM Thiamet G and protease inhibitors; primary antibody with protein A/G beads overnight, five washes, immunoblot; cells untreated or treated with Thiamet G (2 µM, 2 h), H2O2 (50 µM, 45 min), AICAR (1 mM, 1 h), A-769662 (50 µM, 1 h) or cisplatin (10 µM, 2 h)
# [2] = target: T2, GST-NRF2 (GST-tagged NRF2^WT, expressed without OGT; naked recombinant NRF2); test: pull-down; in vitro GST pull-down with purified recombinant GST-NRF2 and His-OGT; both purified
# [3] = target: T1, Nuclear transcription factor erythroid 2p45 (NF-E2)-related factor 2 (NRF2), endogenous (human (endogenous in NCI-H1299)); test: co-IP; NCI-H1299 cells expressing Flag-tagged OGT^WT, OGT^T444E or OGT^T444A; NRF2 detected by immunoblot
binding [3],Binder,other results
–,"N-acetylglucosamine transferase (OGT), endogenous (enzyme, UniProt O15294 1-1046) MASSVGNVADSTEPTKRMLSFQGLAELAHREYQAGDFEAAERHCMQLWRQEPDNTGVLLLLSSIHFQCRRLDRSAHFSTLAIKQNPLLAEAYSNLGNVYKERGQLQEAIEHYRHALRLKPDFIDGYINLAAALVAAGDMEGAVQAYVSALQYNPDLYCVRSDLGNLLKALGRLEEAKACYLKAIETQPNFAVAWSNLGCVFNAQGEIWLAIHHFEKAVTLDPNFLDAYINLGNVLKEARIFDRAVAAYLRALSLSPNHAVVHGNLACVYYEQGLIDLAIDTYRRAIELQPHFPDAYCNLANALKEKGSVAEAEDCYNTALRLCPTHADSLNNLANIKREQGNIEEAVRLYRKALEVFPEFAAAHSNLASVLQQQGKLQEALMHYKEAIRISPTFADAYSNMGNTLKEMQDVQGALQCYTRAIQINPAFADAHSNLASIHKDSGNIPEAIASYRTALKLKPDFPDAYCNLAHCLQIVCDWTDYDERMKKLVSIVADQLEKNRLPSVHPHHSMLYPLSHGFRKAIAERHGNLCLDKINVLHKPPYEHPKDLKLSDGRLRVGYVSSDFGNHPTSHLMQSIPGMHNPDKFEVFCYALSPDDGTNFRVKVMAEANHFIDLSQIPCNGKAADRIHQDGIHILVNMNGYTKGARNELFALRPAPIQAMWLGYPGTSGALFMDYIITDQETSPAEVAEQYSEKLAYMPHTFFIGDHANMFPHLKKKAVIDFKSNGHIYDNRIVLNGIDLKAFLDSLPDVKIVKMKCPDGGDNADSSNTALNMPVIPMNTIAEAVIEMINRGQIQITINGFSISNGLATTQINNKAATGEEVPRTIIVTTRSQYGLPEDAIVYCNFNQLYKIDPSTLQMWANILKRVPNSVLWLLRFPAVGEPNIQQYAQNMGLPQNRIIFSPVAPKEEHVRRGQLADVCLDTPLCNGHTTGMDVLWAGTPMVTMPGETLASRVAASQLTCLGCLELIAKNRQEYEDIAVKLGTDLEYLKKVRGKVWKQRISSPLFNTKQYTMELERLYLQMWEHYAAGNKPDHMIKPVEVTESA",binding [1]: binds
–,"His-OGT, recombinant (enzyme, UniProt O15294 1-1046) MASSVGNVADSTEPTKRMLSFQGLAELAHREYQAGDFEAAERHCMQLWRQEPDNTGVLLLLSSIHFQCRRLDRSAHFSTLAIKQNPLLAEAYSNLGNVYKERGQLQEAIEHYRHALRLKPDFIDGYINLAAALVAAGDMEGAVQAYVSALQYNPDLYCVRSDLGNLLKALGRLEEAKACYLKAIETQPNFAVAWSNLGCVFNAQGEIWLAIHHFEKAVTLDPNFLDAYINLGNVLKEARIFDRAVAAYLRALSLSPNHAVVHGNLACVYYEQGLIDLAIDTYRRAIELQPHFPDAYCNLANALKEKGSVAEAEDCYNTALRLCPTHADSLNNLANIKREQGNIEEAVRLYRKALEVFPEFAAAHSNLASVLQQQGKLQEALMHYKEAIRISPTFADAYSNMGNTLKEMQDVQGALQCYTRAIQINPAFADAHSNLASIHKDSGNIPEAIASYRTALKLKPDFPDAYCNLAHCLQIVCDWTDYDERMKKLVSIVADQLEKNRLPSVHPHHSMLYPLSHGFRKAIAERHGNLCLDKINVLHKPPYEHPKDLKLSDGRLRVGYVSSDFGNHPTSHLMQSIPGMHNPDKFEVFCYALSPDDGTNFRVKVMAEANHFIDLSQIPCNGKAADRIHQDGIHILVNMNGYTKGARNELFALRPAPIQAMWLGYPGTSGALFMDYIITDQETSPAEVAEQYSEKLAYMPHTFFIGDHANMFPHLKKKAVIDFKSNGHIYDNRIVLNGIDLKAFLDSLPDVKIVKMKCPDGGDNADSSNTALNMPVIPMNTIAEAVIEMINRGQIQITINGFSISNGLATTQINNKAATGEEVPRTIIVTTRSQYGLPEDAIVYCNFNQLYKIDPSTLQMWANILKRVPNSVLWLLRFPAVGEPNIQQYAQNMGLPQNRIIFSPVAPKEEHVRRGQLADVCLDTPLCNGHTTGMDVLWAGTPMVTMPGETLASRVAASQLTCLGCLELIAKNRQEYEDIAVKLGTDLEYLKKVRGKVWKQRISSPLFNTKQYTMELERLYLQMWEHYAAGNKPDHMIKPVEVTESA",binding [2]: binds
binds,"Flag-tagged OGT^WT (enzyme, UniProt O15294-3 1-1036) MASSVGNVADSTGLAELAHREYQAGDFEAAERHCMQLWRQEPDNTGVLLLLSSIHFQCRRLDRSAHFSTLAIKQNPLLAEAYSNLGNVYKERGQLQEAIEHYRHALRLKPDFIDGYINLAAALVAAGDMEGAVQAYVSALQYNPDLYCVRSDLGNLLKALGRLEEAKACYLKAIETQPNFAVAWSNLGCVFNAQGEIWLAIHHFEKAVTLDPNFLDAYINLGNVLKEARIFDRAVAAYLRALSLSPNHAVVHGNLACVYYEQGLIDLAIDTYRRAIELQPHFPDAYCNLANALKEKGSVAEAEDCYNTALRLCPTHADSLNNLANIKREQGNIEEAVRLYRKALEVFPEFAAAHSNLASVLQQQGKLQEALMHYKEAIRISPTFADAYSNMGNTLKEMQDVQGALQCYTRAIQINPAFADAHSNLASIHKDSGNIPEAIASYRTALKLKPDFPDAYCNLAHCLQIVCDWTDYDERMKKLVSIVADQLEKNRLPSVHPHHSMLYPLSHGFRKAIAERHGNLCLDKINVLHKPPYEHPKDLKLSDGRLRVGYVSSDFGNHPTSHLMQSIPGMHNPDKFEVFCYALSPDDGTNFRVKVMAEANHFIDLSQIPCNGKAADRIHQDGIHILVNMNGYTKGARNELFALRPAPIQAMWLGYPGTSGALFMDYIITDQETSPAEVAEQYSEKLAYMPHTFFIGDHANMFPHLKKKAVIDFKSNGHIYDNRIVLNGIDLKAFLDSLPDVKIVKMKCPDGGDNADSSNTALNMPVIPMNTIAEAVIEMINRGQIQITINGFSISNGLATTQINNKAATGEEVPRTIIVTTRSQYGLPEDAIVYCNFNQLYKIDPSTLQMWANILKRVPNSVLWLLRFPAVGEPNIQQYAQNMGLPQNRIIFSPVAPKEEHVRRGQLADVCLDTPLCNGHTTGMDVLWAGTPMVTMPGETLASRVAASQLTCLGCLELIAKNRQEYEDIAVKLGTDLEYLKKVRGKVWKQRISSPLFNTKQYTMELERLYLQMWEHYAAGNKPDHMIKPVEVTESA",–
binds,"Flag-tagged OGT^T444E (enzyme, UniProt O15294-3 1-1036) MASSVGNVADSTGLAELAHREYQAGDFEAAERHCMQLWRQEPDNTGVLLLLSSIHFQCRRLDRSAHFSTLAIKQNPLLAEAYSNLGNVYKERGQLQEAIEHYRHALRLKPDFIDGYINLAAALVAAGDMEGAVQAYVSALQYNPDLYCVRSDLGNLLKALGRLEEAKACYLKAIETQPNFAVAWSNLGCVFNAQGEIWLAIHHFEKAVTLDPNFLDAYINLGNVLKEARIFDRAVAAYLRALSLSPNHAVVHGNLACVYYEQGLIDLAIDTYRRAIELQPHFPDAYCNLANALKEKGSVAEAEDCYNTALRLCPTHADSLNNLANIKREQGNIEEAVRLYRKALEVFPEFAAAHSNLASVLQQQGKLQEALMHYKEAIRISPTFADAYSNMGNTLKEMQDVQGALQCYTRAIQINPAFADAHSNLASIHKDSGNIPEAIASYREALKLKPDFPDAYCNLAHCLQIVCDWTDYDERMKKLVSIVADQLEKNRLPSVHPHHSMLYPLSHGFRKAIAERHGNLCLDKINVLHKPPYEHPKDLKLSDGRLRVGYVSSDFGNHPTSHLMQSIPGMHNPDKFEVFCYALSPDDGTNFRVKVMAEANHFIDLSQIPCNGKAADRIHQDGIHILVNMNGYTKGARNELFALRPAPIQAMWLGYPGTSGALFMDYIITDQETSPAEVAEQYSEKLAYMPHTFFIGDHANMFPHLKKKAVIDFKSNGHIYDNRIVLNGIDLKAFLDSLPDVKIVKMKCPDGGDNADSSNTALNMPVIPMNTIAEAVIEMINRGQIQITINGFSISNGLATTQINNKAATGEEVPRTIIVTTRSQYGLPEDAIVYCNFNQLYKIDPSTLQMWANILKRVPNSVLWLLRFPAVGEPNIQQYAQNMGLPQNRIIFSPVAPKEEHVRRGQLADVCLDTPLCNGHTTGMDVLWAGTPMVTMPGETLASRVAASQLTCLGCLELIAKNRQEYEDIAVKLGTDLEYLKKVRGKVWKQRISSPLFNTKQYTMELERLYLQMWEHYAAGNKPDHMIKPVEVTESA",–
binds,"Flag-tagged OGT^T444A (enzyme, UniProt O15294-3 1-1036) MASSVGNVADSTGLAELAHREYQAGDFEAAERHCMQLWRQEPDNTGVLLLLSSIHFQCRRLDRSAHFSTLAIKQNPLLAEAYSNLGNVYKERGQLQEAIEHYRHALRLKPDFIDGYINLAAALVAAGDMEGAVQAYVSALQYNPDLYCVRSDLGNLLKALGRLEEAKACYLKAIETQPNFAVAWSNLGCVFNAQGEIWLAIHHFEKAVTLDPNFLDAYINLGNVLKEARIFDRAVAAYLRALSLSPNHAVVHGNLACVYYEQGLIDLAIDTYRRAIELQPHFPDAYCNLANALKEKGSVAEAEDCYNTALRLCPTHADSLNNLANIKREQGNIEEAVRLYRKALEVFPEFAAAHSNLASVLQQQGKLQEALMHYKEAIRISPTFADAYSNMGNTLKEMQDVQGALQCYTRAIQINPAFADAHSNLASIHKDSGNIPEAIASYRAALKLKPDFPDAYCNLAHCLQIVCDWTDYDERMKKLVSIVADQLEKNRLPSVHPHHSMLYPLSHGFRKAIAERHGNLCLDKINVLHKPPYEHPKDLKLSDGRLRVGYVSSDFGNHPTSHLMQSIPGMHNPDKFEVFCYALSPDDGTNFRVKVMAEANHFIDLSQIPCNGKAADRIHQDGIHILVNMNGYTKGARNELFALRPAPIQAMWLGYPGTSGALFMDYIITDQETSPAEVAEQYSEKLAYMPHTFFIGDHANMFPHLKKKAVIDFKSNGHIYDNRIVLNGIDLKAFLDSLPDVKIVKMKCPDGGDNADSSNTALNMPVIPMNTIAEAVIEMINRGQIQITINGFSISNGLATTQINNKAATGEEVPRTIIVTTRSQYGLPEDAIVYCNFNQLYKIDPSTLQMWANILKRVPNSVLWLLRFPAVGEPNIQQYAQNMGLPQNRIIFSPVAPKEEHVRRGQLADVCLDTPLCNGHTTGMDVLWAGTPMVTMPGETLASRVAASQLTCLGCLELIAKNRQEYEDIAVKLGTDLEYLKKVRGKVWKQRISSPLFNTKQYTMELERLYLQMWEHYAAGNKPDHMIKPVEVTESA",–

# — publication PMC11447106 (Clinical and Translational Medicine, 2024)
